No constants are given. Whether binding was seen depends on the method and setting. For some of these results: In cells and extracts the contact can be indirect. Some entries that bind do so weakly or less than the wild type. For some of these results: Sequences can lack the tags named with a protein.
T1: A. thaliana Flag-SPO11-2 (A. thaliana) (UniProt Q9M4A1)
T1 sequence: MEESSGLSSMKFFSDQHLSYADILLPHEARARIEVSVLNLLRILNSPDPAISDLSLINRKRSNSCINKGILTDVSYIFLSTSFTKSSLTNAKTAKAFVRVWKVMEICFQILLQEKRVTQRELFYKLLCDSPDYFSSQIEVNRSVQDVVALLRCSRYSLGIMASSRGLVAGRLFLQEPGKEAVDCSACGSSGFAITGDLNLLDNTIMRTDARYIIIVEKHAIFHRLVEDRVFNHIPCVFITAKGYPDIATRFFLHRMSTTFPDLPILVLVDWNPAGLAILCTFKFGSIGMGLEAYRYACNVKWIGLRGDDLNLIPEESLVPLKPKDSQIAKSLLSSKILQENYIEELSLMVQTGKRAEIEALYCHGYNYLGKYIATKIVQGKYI

T2: A. thaliana His6-MBP-MTOPVIB (A. thaliana) (UniProt Q5Q0E6)
T2 sequence: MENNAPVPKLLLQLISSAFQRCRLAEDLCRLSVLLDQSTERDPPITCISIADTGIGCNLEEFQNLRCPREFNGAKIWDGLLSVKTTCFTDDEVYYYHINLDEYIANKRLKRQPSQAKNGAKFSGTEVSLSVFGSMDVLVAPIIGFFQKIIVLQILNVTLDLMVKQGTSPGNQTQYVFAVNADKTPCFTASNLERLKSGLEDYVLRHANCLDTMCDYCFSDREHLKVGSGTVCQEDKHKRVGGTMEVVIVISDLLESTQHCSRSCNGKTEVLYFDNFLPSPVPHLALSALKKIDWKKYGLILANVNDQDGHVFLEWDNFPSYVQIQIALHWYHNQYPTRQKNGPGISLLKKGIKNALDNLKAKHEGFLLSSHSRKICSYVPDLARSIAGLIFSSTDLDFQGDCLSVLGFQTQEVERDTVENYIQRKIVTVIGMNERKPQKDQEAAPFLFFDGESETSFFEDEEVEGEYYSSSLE

T3: Nanoarchaeum equitans Topo VIA (co-expressed with Topo VIB from pETDuet) (Nanoarchaeum equitans) (UniProt Q74M54)
T3 sequence: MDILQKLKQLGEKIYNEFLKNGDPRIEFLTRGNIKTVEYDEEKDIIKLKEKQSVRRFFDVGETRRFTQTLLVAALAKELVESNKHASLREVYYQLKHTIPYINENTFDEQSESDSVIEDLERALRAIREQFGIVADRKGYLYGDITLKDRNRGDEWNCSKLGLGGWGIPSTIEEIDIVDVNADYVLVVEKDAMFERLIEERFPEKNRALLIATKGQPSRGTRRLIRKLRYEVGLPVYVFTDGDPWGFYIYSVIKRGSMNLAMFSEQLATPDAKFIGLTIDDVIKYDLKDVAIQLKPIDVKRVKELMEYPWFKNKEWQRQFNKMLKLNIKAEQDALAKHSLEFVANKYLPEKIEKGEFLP


Experiments:
[1] = target: T1, A. thaliana Flag-SPO11-2 (A. thaliana); assay: pull-down; three proteins co-expressed in High Five cells; lysate over amylose resin (150 mM KCl), eluate over anti-FLAG M2 gel, then heparin, Mono Q and Superdex 200; components shown by SDS-PAGE, immunoblot and mass spectrometry
[2] = target: T2, A. thaliana His6-MBP-MTOPVIB (A. thaliana); assay: as above
[3] = target: T3, Nanoarchaeum equitans Topo VIA (co-expressed with Topo VIB from pETDuet) (Nanoarchaeum equitans); assay: co-purification (Ni-NTA, then size exclusion); Topo VIA and Topo VIB co-expressed in E. coli; lysate heated to 75°C for 1 h, Ni-NTA in D buffer, Hi-Load Superdex 200 in E buffer with 500 mM NaCl

binding [1]	binding [2]	binding [3]	Binder
binds	binds	–	A. thaliana His6-SPO11-1 (protein, UniProt Q9M4A2 1-362) MEGKFAISESTNLLQRIKDFTQSVVVDLAEGRSPKISINQFRNYCMNPEADCLCSSDKPKGQEIFTLKKEPQTYRIDMLLRVLLIVQQLLQENRHASKRDIYYMHPSAFKAQSIVDRAIGDICILFQCSRYNLNVVSVGNGLVMGWLKFREAGRKFDCLNSLNTAYPVPVLVEEVEDIVSLAEYILVVEKETVFQRLANDMFCKTNRCIVITGRGYPDVSTRRFLRLLMEKLHLPVHCLVDCDPYGFEILATYRFGSMQMAYDIESLRAPDMKWLGAFPSDSEVYSVPKQCLLPLTEEDKKRTEAMLLRCYLKREMPQWRLELETMLKRGVKFEIEALSVHSLSFLSEVYIPSKIRREVSSP
–	–	binds	Nanoarchaeum equitans Topo VIB (expressed alone from pET21b) (natural protein, UniProt Q74N98 1-567, looked up, Topoisomerase VI subunit B, Nanoarchaeum equitans, codon-optimized cDNA in the Nde1 and Xho1 sites of pET21b; The tag is inferred from the vector and the Ni-NTA step; also called N. equitans Topo VIB; source: E. coli Rosetta (DE3) pLysS, purified (Ni-NTA, HiPrep SP XL, Hi-Load Superdex 200)) MRRTFREATIAEFFEKNKQFLGFDSPRKALVMTVKELVDNALDATEEARILPTIKVTLKEGKYMTVRVEDNGPGIPFNEVPNVFGKFLYGTKFHVLKQNRGQQGIGAAAITLYSQLTTGKPIRVWDKPIDSNKAYYYEIMIDTKRNEPEVLVKKEVKLNIKHGLIVEADIKGEYTKGKQSVDQYLKLTAVANPHAEIIYRTPKGEYIVFKRGTNELPPLPKEIKPHPHGIELGQLKKMVSEHKGDLMDFLIKNFSSVGEDKAKEILARYIFYKEGKEDFEKFFKRFRGRKIDIKSLTSEDLELLLKAMRETKLKMPSAKALIPIGEKNLQIGITKEYDVEYLAVKTRKPKVYSGGIPFLVEVAIGYGDFEKAEILRFANRTPLLYKAGECAIVKAIKDINWKRYGFEVENNLPKNALILVHIASVKVPYTSESKEAIADIPEVREEIKRALQEVARKVQIYIKKKEETKELAEKYLRFYAYGKEIERYLPKLIDKDVDSVVTKTILKRLEEELLERIKNNKTIVTHIENKDYETAKKLIKKMVMPLIKKKIIDESFIDRLIQLYNVS
–	binds	–	A. thaliana Flag-SPO11-2 (protein, UniProt Q9M4A1 1-383) MEESSGLSSMKFFSDQHLSYADILLPHEARARIEVSVLNLLRILNSPDPAISDLSLINRKRSNSCINKGILTDVSYIFLSTSFTKSSLTNAKTAKAFVRVWKVMEICFQILLQEKRVTQRELFYKLLCDSPDYFSSQIEVNRSVQDVVALLRCSRYSLGIMASSRGLVAGRLFLQEPGKEAVDCSACGSSGFAITGDLNLLDNTIMRTDARYIIIVEKHAIFHRLVEDRVFNHIPCVFITAKGYPDIATRFFLHRMSTTFPDLPILVLVDWNPAGLAILCTFKFGSIGMGLEAYRYACNVKWIGLRGDDLNLIPEESLVPLKPKDSQIAKSLLSSKILQENYIEELSLMVQTGKRAEIEALYCHGYNYLGKYIATKIVQGKYI
